Consider 2 molecules from PMC8466908.

Chains of the proteins cited; added tags and fusions are not shown. Residues count along the entry.
UniProt P31040, residues 43-664: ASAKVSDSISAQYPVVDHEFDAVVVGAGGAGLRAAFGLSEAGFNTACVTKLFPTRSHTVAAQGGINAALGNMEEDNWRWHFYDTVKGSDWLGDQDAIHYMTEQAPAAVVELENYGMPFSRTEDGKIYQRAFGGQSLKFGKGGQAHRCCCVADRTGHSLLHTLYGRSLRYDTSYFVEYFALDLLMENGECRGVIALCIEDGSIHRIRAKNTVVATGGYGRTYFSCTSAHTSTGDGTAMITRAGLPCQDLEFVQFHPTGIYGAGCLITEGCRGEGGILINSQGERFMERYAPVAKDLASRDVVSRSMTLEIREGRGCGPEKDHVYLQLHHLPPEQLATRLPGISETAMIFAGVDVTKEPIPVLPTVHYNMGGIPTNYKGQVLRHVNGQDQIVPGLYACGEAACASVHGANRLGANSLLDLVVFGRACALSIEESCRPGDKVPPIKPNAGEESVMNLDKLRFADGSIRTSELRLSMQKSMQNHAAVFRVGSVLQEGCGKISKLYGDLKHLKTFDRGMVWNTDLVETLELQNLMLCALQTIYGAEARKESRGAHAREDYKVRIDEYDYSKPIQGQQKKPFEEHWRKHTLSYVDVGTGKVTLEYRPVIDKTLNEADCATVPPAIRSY

No constants are given. Whether binding was seen depends on the method and setting. Some entries that bind do so weakly or less than the wild type.

The target in experiment [1] is Succinate dehydrogenase subunit A (human (endogenous in HEK293 and HepG2)) (UniProt P31040). Description: native gel or EMSA; two-dimensional BN-PAGE/SDS-PAGE and immunoblot of mitochondrial lysates of parental and CAMKK2-/- HepG2 cells; lysis buffer pH 7 with 1.5% n-dodecyl beta-D-maltoside, 4-15% gradient native gel run at 4 °C; co-migration (vertical alignment) read as association. A general note: In EMSA bound probe runs differently from free probe, usually more slowly.

Experiment [2] has the same target. Description: native gel or EMSA; two-dimensional BN-PAGE/SDS-PAGE and immunoblot of mitochondrial lysates of parental and CAMKK2-/- HEK293 cells; lysis buffer pH 7 with 1.5% n-dodecyl beta-D-maltoside, 4-15% gradient native gel run at 4 °C; co-migration (vertical alignment) read as association.
The target in experiment [3] is T1, Succinate dehydrogenase subunit C (human (endogenous in HEK293)) (UniProt Q99643).
T1 sequence: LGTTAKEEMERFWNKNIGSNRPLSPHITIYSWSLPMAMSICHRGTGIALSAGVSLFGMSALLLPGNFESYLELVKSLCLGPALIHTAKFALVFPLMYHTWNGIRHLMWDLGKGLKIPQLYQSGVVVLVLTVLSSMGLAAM
The experiment is described as above.

B1: Succinate Dehydrogenase Complex Iron-Sulfur Subunit B (protein, UniProt P21912 29-280)
chain: AQTAAATAPRIKKFAIYRWDPDKAGDKPHMQTYEVDLNKCGPMVLDALIKIKNEVDSTLTFRRSCREGICGSCAMNINGGNTLACTRRIDTNLNKVSKIYPLPHMYVIKDLVPDLSNFYAQYKSIEPYLKKKDESQEGKQQYLQSIEEREKLDGLYECILCACCSTSCPSYWWNGDKYLGPAVLMQAYRWMIDSRDDFTEERLAKLQDPFSLYRCHTIMNCTRTCPKGLNPGKAIAEIKKMMATYKEKKASV
As for B1, the binding entry in experiment [1], in experiment [2] and in experiment [3] was “binds” each time.

B2: Succinate dehydrogenase subunit C (protein, UniProt Q99643 30-169)
chain: T1 sequence
As to B2, the binding result in experiment [2] is on record as “binds”.
